Experiments:
[1] = general procedure: Fmoc solid-phase peptide synthesis; TentaGel S Ram; HATU with DIPEA; settings: whole synthesis, scale 1.04 g; 0.25 mmol/g
[2] = general procedure: Fmoc solid-phase peptide synthesis; TentaGel S Ram (polystyrene resin); HATU with DIPEA; settings: whole synthesis, analytical HPLC and MS, scale of the general procedure 1.04 g resin, 0.25 mmol/g

For “H-H-Aib-QGTFTSDYSKYLD-K(Hexadecanoyl-isoGlu)-RRAKDFIEWLLSA-NH2”, the isolated mass [1] was 88 mg and the “final purity (method not given)” value [2] was 95%.

Reference: patent US20160347813A1 (Zealand Pharma A/S, priority 2011, published 2016)
